{"source": "the supplement of paper PMC9135407", "system": "primary human hepatic stellate cells (donor 1)", "experiment": "percent Bodipy-positive cells; higher = more lipid droplet accumulation", "conditions": "48 h", "key": {"[1]": {"conditions": "library stock concentration: 10 mM"}, "[2]": {"conditions": "library stock concentration: 3.33 mM"}, "[3]": {"conditions": "library stock concentration: 1 mM"}}, "note": "Values joined by “and” are separate entries in the source; they are usually repeats but may differ in a detail not shown here. Equal values may be shown once. Where a name gives a salt, the structure may show the parent alone. ± gives the standard deviation of the averaged measurements. The list shows a part of the results. Part of the spread comes from offsets between plates or batches.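 Culture-activated primary human stellate myofibroblasts, where regained lipid droplets signal inactivation. Value: share of Hoechst-counted cells above a per-plate Bodipy cutoff, in duplicate wells, with DMSO negative and nortriptyline positive controls on each plate. Hits: a control-normalized score above the plate's top-tenth-percentile nortriptyline wells, or one of a plate's three best wells. Final well concentrations are not given.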"}
{"smiles": "COc1cccc(NC(=O)/C=C/c2ccc(Cl)cc2)c1", "values": [{"measurement": "percent Bodipy-positive cells", "setting": "[1]", "result": "68 ± 6", "unit": "%"}]}
{"smiles": "O=C1c2ccccc2C(=O)c2c1ccc(O)c2O", "note": "[Alizarin]", "values": [{"measurement": "percent Bodipy-positive cells", "setting": "[2]", "result": "6.94 ± 1.2", "unit": "%"}, {"measurement": "percent Bodipy-positive cells", "setting": "[1]", "result": "19.3% and 37.2%"}]}
{"smiles": "CCCCC/C=C/C=C1/C=CC(=O)[C@@H]1C/C=C\\CCCC(=O)O", "note": "[15-deoxy-.DELTA.12,14-Prostaglandin A2]", "values": [{"measurement": "percent Bodipy-positive cells", "setting": "[3]", "result": "13.9 ± 2.1", "unit": "%"}]}
{"smiles": "N[C@@H]1[C@H]2CN(c3nc4c(cc3F)c(=O)c(C(=O)O)cn4-c3ccc(F)cc3F)C[C@@H]12", "note": "[Trovafloxacin mesylate]", "values": [{"measurement": "percent Bodipy-positive cells", "setting": "[1]", "result": "51.5 ± 6.8", "unit": "%"}]}
{"smiles": "c1ccc(CNc2nc(NCc3ccccc3)c3ccccc3n2)cc1", "values": [{"measurement": "percent Bodipy-positive cells", "setting": "[2]", "result": "92.5 ± 5.6", "unit": "%"}, {"measurement": "percent Bodipy-positive cells", "setting": "[1]", "result": 100, "unit": "%"}]}
{"smiles": "CC(/C=C1\\SC(=S)N(CC(=O)O)C1=O)=C\\c1ccccc1", "note": "[Epalrestat]", "values": [{"measurement": "percent Bodipy-positive cells", "setting": "[2]", "result": "7.3 ± 2.1", "unit": "%"}, {"measurement": "percent Bodipy-positive cells", "setting": "[1]", "result": "14.7 ± 2.5", "unit": "%"}]}
{"smiles": "CCC(=O)OCN1C(=O)C=CC1=O", "values": [{"measurement": "percent Bodipy-positive cells", "setting": "[1]", "result": "8.61 ± 2.5", "unit": "%"}]}
{"smiles": "C[C@H](N)C(=O)CCCCCC(=O)O", "note": "[KAPA (hydrochloride)]", "values": [{"measurement": "percent Bodipy-positive cells", "setting": "[3]", "result": "8.13 ± 0.93", "unit": "%"}]}
{"smiles": "NS(=O)(=O)C#Cc1ccccc1", "note": "[Pifithrin->m]", "values": [{"measurement": "percent Bodipy-positive cells", "setting": "[1]", "result": "98.3 ± 1.9", "unit": "%"}]}
{"smiles": "CN1CCN(CCCN2c3ccccc3Sc3ccc(Cl)cc32)CC1", "note": "[Prochlorperazine dimaleate]", "values": [{"measurement": "percent Bodipy-positive cells", "result": "69.5 ± 7.9", "unit": "%"}, {"measurement": "percent Bodipy-positive cells", "setting": "[1]", "result": "79.6 ± 2.9", "unit": "%"}]}
{"smiles": "CN1CCN(CCCN2c3ccccc3Sc3ccc(Cl)cc32)CC1", "note": "[Prochlorperazine edisylate]", "values": [{"measurement": "percent Bodipy-positive cells", "setting": "library stock concentration: 3.5 mM", "result": "70.7 ± 3.8", "unit": "%"}, {"measurement": "percent Bodipy-positive cells", "setting": "[1]", "result": "53.5 ± 5.6", "unit": "%"}]}
{"smiles": "COC(=O)CCSCc1ccc(-c2onc(C)c2NC(=O)OC(C)c2ccccc2Cl)cc1", "note": "(centres undefined)", "values": [{"measurement": "percent Bodipy-positive cells", "setting": "[2]", "result": "20.8 ± 5.8", "unit": "%"}, {"measurement": "percent Bodipy-positive cells", "setting": "[1]", "result": "15.4 ± 9", "unit": "%"}]}
{"smiles": "Cc1nc(=O)c2cc(CN(C)c3ccc(C(=O)N[C@@H](CCC(=O)O)C(=O)O)s3)ccc2[nH]1", "note": "[Raltitrexed]", "values": [{"measurement": "percent Bodipy-positive cells", "setting": "[2]", "result": "14.5 ± 2.8", "unit": "%"}, {"measurement": "percent Bodipy-positive cells", "setting": "[1]", "result": "19.2 ± 1.5", "unit": "%"}]}
{"smiles": "Cc1nc(=O)c2cc(CN(C)c3ccc(C(=O)N[C@@H](CCC(=O)O)C(=O)O)s3)ccc2[nH]1", "values": [{"measurement": "percent Bodipy-positive cells", "setting": "[1]", "result": "15 ± 7.9", "unit": "%"}]}
{"smiles": "CCCCN1CCCC1CNC(=O)c1cc(C#N)c2ccccc2c1OC", "note": "(centres undefined) [Nafadotride]", "values": [{"measurement": "percent Bodipy-positive cells", "setting": "[1]", "result": "49.6% and 24.6%"}]}
{"smiles": "c1ccc2c3c([nH]c2c1)C1C2CCC(C4CCCNC42)N1CC3", "note": "(centres undefined) [Nitrarine dihydrochloride]", "values": [{"measurement": "percent Bodipy-positive cells", "result": "36.7 ± 3.1", "unit": "%"}]}
{"smiles": "CN(Cc1ccccc1)C(=O)[C@H](Cc1ccc2ccccc2c1)NC(=O)[C@@H]1CCCN1C(=O)Nc1ccccc1[N+](=O)[O-]", "values": [{"measurement": "percent Bodipy-positive cells", "setting": "[1]", "result": "7.1 ± 0.2", "unit": "%"}]}
{"smiles": "CC(=O)Nc1nc(C)c(-c2ccc(Cl)c(S(=O)(=O)NCCO)c2)s1", "values": [{"measurement": "percent Bodipy-positive cells", "setting": "library stock concentration: 80 uM", "result": "8.61 ± 1.9", "unit": "%"}, {"measurement": "percent Bodipy-positive cells", "setting": "library stock concentration: 400 uM", "result": "6.93 ± 0.8", "unit": "%"}, {"measurement": "percent Bodipy-positive cells", "setting": "library stock concentration: 2 mM", "result": "8.16 ± 0.59", "unit": "%"}, {"measurement": "percent Bodipy-positive cells", "setting": "[2]", "result": "8.27 ± 0.44", "unit": "%"}, {"measurement": "percent Bodipy-positive cells", "setting": "[1]", "result": "19.2% and 11.2%"}]}
{"smiles": "CN1CC[C@]23c4ccccc4N[C@H]1[C@]21CCN(C)[C@H]3Nc2ccccc21", "note": "[Calycanthine]", "values": [{"measurement": "percent Bodipy-positive cells", "result": "45 ± 6.8", "unit": "%"}]}
{"smiles": "COc1ccccc1OCCNCC(O)COc1cccc2[nH]c3ccccc3c12", "note": "(centres undefined) [Carvedilol]", "values": [{"measurement": "percent Bodipy-positive cells", "setting": "[1]", "result": "97.6 ± 2.4", "unit": "%"}]}
{"smiles": "Br.NC(=O)C(c1ccccc1)(c1ccccc1)[C@@H]1CCN(CCc2ccc3c(c2)CCO3)C1", "values": [{"measurement": "percent Bodipy-positive cells", "setting": "[1]", "result": "90.6 ± 0.33", "unit": "%"}]}
{"smiles": "OC[C@H]1O[C@@H](Oc2cc(O)cc(/C=C/c3ccc(O)cc3)c2)[C@H](O)[C@@H](O)[C@@H]1O", "values": [{"measurement": "percent Bodipy-positive cells", "setting": "[1]", "result": "9.55 ± 1.7", "unit": "%"}]}
{"smiles": "Cc1c[nH]c(-c2cnc(NCCNc3ccc(C#N)cn3)nc2-c2ccc(Cl)cc2Cl)n1.Cl", "values": [{"measurement": "percent Bodipy-positive cells", "setting": "[1]", "result": "77 ± 2.2", "unit": "%"}]}
{"smiles": "COc1ccc(C2CNC(=O)C2)cc1OC1CCCC1", "note": "(centres undefined) [Rolipram]", "values": [{"measurement": "percent Bodipy-positive cells", "result": "9.97 ± 6.6", "unit": "%"}, {"measurement": "percent Bodipy-positive cells", "setting": "[2]", "result": "8.29 ± 8.6", "unit": "%"}, {"measurement": "percent Bodipy-positive cells", "setting": "library stock concentration: 7.3 mM", "result": "12.3 ± 3.9", "unit": "%"}, {"measurement": "percent Bodipy-positive cells", "setting": "[1]", "result": "9.8% and 14.2% and 7.41%"}, {"measurement": "percent Bodipy-positive cells", "setting": "library stock concentration: 18.2 mM", "result": "11.4 ± 3.7", "unit": "%"}]}
